Consider 3 molecules from article PMC3206029.

The chains behind the UniProt entries cited, without tags or fusion partners.
UniProt Q14790: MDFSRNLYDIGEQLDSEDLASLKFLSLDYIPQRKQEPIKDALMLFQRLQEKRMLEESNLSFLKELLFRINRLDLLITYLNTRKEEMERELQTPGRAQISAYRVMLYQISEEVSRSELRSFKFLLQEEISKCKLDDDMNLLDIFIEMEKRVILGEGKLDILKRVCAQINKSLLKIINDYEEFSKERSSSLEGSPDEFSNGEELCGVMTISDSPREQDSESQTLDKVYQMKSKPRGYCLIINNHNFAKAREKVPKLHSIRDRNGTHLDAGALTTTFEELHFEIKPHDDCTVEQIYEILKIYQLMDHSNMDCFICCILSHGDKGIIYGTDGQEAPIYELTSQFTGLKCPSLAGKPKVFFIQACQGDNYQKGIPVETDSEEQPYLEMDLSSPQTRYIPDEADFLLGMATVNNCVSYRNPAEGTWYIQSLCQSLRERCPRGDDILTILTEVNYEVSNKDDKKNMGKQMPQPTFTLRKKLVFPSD

No constants are given. Whether binding was seen depends on the method and setting. Binding seen in cells or lysates may run through a third protein. Some results given as binding are weak or reduced against the parent protein; the word gives no strength. For part of these data: Sequences can lack the tags named with a protein.

Assay [1] deals with caspase 8 (human (endogenous in MIP101, RKO, MiaPaCa and MCF-7 cells)) (UniProt Q14790). Description: co-IP; as a6, read for peptide-NT (added to the cells) disrupting the caspase 8-Bcl2 interaction; only the binder purified.
Assay [2] has the same target. Description: co-IP; caspase 8 mutants (DEDIm, PBm, DEDIIm) transiently transfected into MIP/SP cells; co-IP with SPARC.
For assay [3] the target is unchanged. Briefly: co-IP; as a4, read for rSPARC (added to the cells at 100 ng/mL) displacing Bcl2 from caspase 8; only the binder purified.

B1: synthetic peptide of the N-terminus of SPARC (peptide-NT), tagged with a TAT peptide (peptide)
peptide: YGRKKRRQRRRAPQQEALPDETEVVEETVAEVTEVSVGANPVQVEVGEFDDGAEETEEEVVA
B1: the binding entry in assay [1] is recorded as “binds”.

B2: SPARC overexpressed in MIP/SP cells (protein, UniProt P09486 18-303)
chain: APQQEALPDETEVVEETVAEVTEVSVGANPVQVEVGEFDDGAEETEEEVVAENPCQNHHCKHGKVCELDENNTPMCVCQDPTSCPAPIGEFEKVCSNDNKTFDSSCHFFATKCTLEGTKKGHKLHLDYIGPCKYIPPCLDSELTEFPLRMRDWLKNVLVTLYERDEDNNLLTEKQKLRVKKIHENEKRLEAGDHPVELLARDFEKNYNMYIFPVHWQFGQLDQHPIDGYLSHTELAPLRAPLIPMEHCTTRFFETCDLDNDKYIALDEWAGCFGIKQKDIDKDLVI
Consider B2, for which the binding entry in assay [2] is “binds”.

B3: Recombinant human SPARC (rSPARC) (protein, UniProt P09486 18-303)
chain: B2 chain
For the molecule B3, the binding result in assay [3] is given as “binds”.
